Experimental data taken from PMC7897678.
These are yes or no findings as the source states them, for the method shown. Some binding calls cover weakened binding; strength is not graded here. Where a sequence is shown, tags or fusion partners need not be part of it.

By UniProt entry, the sequences of proteins in these tests, tags left out. Where a name states a change or a piece, a line headed by the entry shows the natural chain unless it says otherwise. Residues count along the entry.
UniProt P98086: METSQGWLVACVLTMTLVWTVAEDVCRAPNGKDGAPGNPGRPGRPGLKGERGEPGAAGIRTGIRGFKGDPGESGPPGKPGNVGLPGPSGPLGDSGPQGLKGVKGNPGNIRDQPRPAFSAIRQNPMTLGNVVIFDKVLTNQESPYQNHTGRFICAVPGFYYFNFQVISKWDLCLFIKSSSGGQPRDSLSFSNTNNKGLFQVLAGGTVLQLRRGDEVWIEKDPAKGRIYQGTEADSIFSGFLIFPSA
UniProt P14106: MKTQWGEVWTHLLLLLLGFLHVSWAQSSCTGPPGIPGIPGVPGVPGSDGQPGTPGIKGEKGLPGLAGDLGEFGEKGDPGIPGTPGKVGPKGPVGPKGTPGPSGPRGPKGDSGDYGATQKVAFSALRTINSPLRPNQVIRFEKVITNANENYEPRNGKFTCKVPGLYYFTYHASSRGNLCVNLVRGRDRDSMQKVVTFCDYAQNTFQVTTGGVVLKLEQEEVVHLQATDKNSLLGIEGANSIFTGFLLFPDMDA
UniProt Q02105: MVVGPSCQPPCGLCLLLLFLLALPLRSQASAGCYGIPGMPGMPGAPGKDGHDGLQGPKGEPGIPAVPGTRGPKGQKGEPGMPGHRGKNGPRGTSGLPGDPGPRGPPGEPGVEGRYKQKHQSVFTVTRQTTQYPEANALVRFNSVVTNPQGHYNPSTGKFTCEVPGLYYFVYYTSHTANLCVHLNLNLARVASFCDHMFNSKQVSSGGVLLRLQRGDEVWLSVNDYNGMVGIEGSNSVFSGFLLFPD
UniProt P08603, residues 19-1231: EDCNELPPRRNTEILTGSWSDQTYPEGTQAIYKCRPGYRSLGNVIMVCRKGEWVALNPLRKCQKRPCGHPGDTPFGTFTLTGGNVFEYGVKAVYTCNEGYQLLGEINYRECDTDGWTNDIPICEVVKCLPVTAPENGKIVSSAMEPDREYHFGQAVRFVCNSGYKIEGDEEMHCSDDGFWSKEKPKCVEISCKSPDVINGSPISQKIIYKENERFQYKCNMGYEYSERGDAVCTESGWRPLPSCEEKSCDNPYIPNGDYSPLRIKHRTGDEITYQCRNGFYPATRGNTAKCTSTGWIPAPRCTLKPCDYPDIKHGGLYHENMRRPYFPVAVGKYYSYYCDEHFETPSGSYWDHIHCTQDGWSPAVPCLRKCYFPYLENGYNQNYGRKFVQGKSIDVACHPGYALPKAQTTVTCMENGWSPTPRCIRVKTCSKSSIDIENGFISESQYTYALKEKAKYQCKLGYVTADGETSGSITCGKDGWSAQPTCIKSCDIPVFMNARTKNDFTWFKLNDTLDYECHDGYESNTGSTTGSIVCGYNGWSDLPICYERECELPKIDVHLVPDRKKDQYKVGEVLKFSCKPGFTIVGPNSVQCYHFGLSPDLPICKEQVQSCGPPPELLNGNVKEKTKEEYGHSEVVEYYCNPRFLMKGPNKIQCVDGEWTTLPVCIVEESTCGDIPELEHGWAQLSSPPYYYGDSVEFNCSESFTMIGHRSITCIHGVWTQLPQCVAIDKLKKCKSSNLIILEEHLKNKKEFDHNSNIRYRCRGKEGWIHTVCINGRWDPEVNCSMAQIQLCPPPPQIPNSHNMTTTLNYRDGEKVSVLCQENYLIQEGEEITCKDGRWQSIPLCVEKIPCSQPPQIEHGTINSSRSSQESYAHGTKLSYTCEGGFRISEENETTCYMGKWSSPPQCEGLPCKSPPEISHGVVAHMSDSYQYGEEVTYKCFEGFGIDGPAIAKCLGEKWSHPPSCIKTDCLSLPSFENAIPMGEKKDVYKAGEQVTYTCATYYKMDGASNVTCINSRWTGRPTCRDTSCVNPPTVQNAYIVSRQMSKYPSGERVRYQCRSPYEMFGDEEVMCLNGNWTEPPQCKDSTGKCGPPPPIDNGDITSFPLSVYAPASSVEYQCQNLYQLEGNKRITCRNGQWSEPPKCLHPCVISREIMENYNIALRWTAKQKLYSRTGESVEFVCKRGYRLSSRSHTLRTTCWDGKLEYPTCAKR

Experiments:
[1] = target: C1q isolated from mouse serum (mouse) (UniProt P98086+P14106+Q02105); test: ELISA; C1q coated to the plate; NP1, NP2 and PTX3 applied in the fluid phase (opposite arrangement to Figure 1a); representative measurements; both purified
Factor H [2] = target: Factor H (UniProt P08603); test: ELISA; FH coated (10 µg/ml); NP1 and NP2 2.5–20 µg/ml, PTX3 1.2–10 µg/ml in solution; bound pentraxins detected with anti-His-tag antibody; both purified
Factor H [3] = target: Factor H (UniProt P08603); test: ELISA; Factor H coated (10 µg/ml); NP1 and NP2 2.5-20 µg/ml in the fluid phase; detected with an anti-His-tag antibody; RT; both purified

Measured: binding

B1: Recombinant human His-tagged neuronal pentraxin 1 (protein, UniProt Q15818 23-432)
chain: QDFGPTRFICTSVPVDADMCAASVAAGGAEELRSSVLQLRETVLQQKETILSQKETIRELTAKLGRCESQSTLDPGAGEARAGGGRKQPGSGKNTMGDLSRTPAAETLSQLGQTLQSLKTRLENLEQYSRLNSSSQTNSLKDLLQSKIDELERQVLSRVNTLEEGKGGPRNDTEERVKIETALTSLHQRISELEKGQKDNRPGDKFQLTFPLRTNYMYAKVKKSLPEMYAFTVCMWLKSSATPGVGTPFSYAVPGQANELVLIEWGNNPMEILINDKVAKLPFVINDGKWHHICVTWTTRDGVWEAYQDGTQGGSGENLAPYHPIKPQGVLVLGQEQDTLGGGFDATQAFVGELAHFNIWDRKLTPGEVYNLATCSTKALSGNVIAWAESHIEIYGGATKWTFEACRQIN
binds: [1] | Factor H [2] | Factor H [3]

B2: Recombinant human His-tagged neuronal pentraxin 2 (protein, UniProt P47972 16-431)
chain: GAQDSPAPGSRFVCTALPPEAVHAGCPLPAMPMQGGAQSPEEELRAAVLQLRETVVQQKETLGAQREAIRELTGKLARCEGLAGGKARGAGATGKDTMGDLPRDPGHVVEQLSRSLQTLKDRLESLEHQLRANVSNAGLPGDFREVLQQRLGELERQLLRKVAELEDEKSLLHNETSAHRQKTESTLNALLQRVTELERGNSAFKSPDAFKVSLPLRTNYLYGKIKKTLPELYAFTICLWLRSSASPGIGTPFSYAVPGQANEIVLIEWGNNPIELLINDKVAQLPLFVSDGKWHHICVTWTTRDGMWEAFQDGEKLGTGENLAPWHPIKPGGVLILGQEQDTVGGRFDATQAFVGELSQFNIWDRVLRAQEIVNIANCSTNMPGNIIPWVDNNVDVFGGASKWPVETCEERLLDL
binds: [1] | Factor H [2] | Factor H [3]
